Results as given in patent publication US7211566B2 (Universite De Sherbrooke, priority 2003, dated 2007).
Part of at least one peptide drawing is inferred or uncertain, most often the ends. Square brackets hold non-standard residues; d marks the D form. Peptide text beside a SMILES is read from it. Oic = O=C(O)[C@@H]1C[C@@H]2CCCC[C@@H]2N1; d2Nal = N[C@H](Cc1ccc2ccccc2c1)C(=O)O; αMeF = C[C@](N)(Cc1ccccc1)C(=O)O; Orn = NCCC[C@H](N)C(=O)O

Tests used:
Assay type in all cases: in vivo
STZ diabetic mice [1] = assay: Vascular permeability (Evans blue extravasation) in STZ-induced diabetes; details: 300 μg/kg i.v., caecum
STZ diabetic mice [2] = assay: Tail immersion test, type-1 diabetic hyperalgesia
Method: (§1) Male CD-1 mice weighting between 25–30 g (Charles River Breeding Laboratory, St-Constant, QC, Canada) were used. The mice were housed four by cage with free access to food and water. They were maintained under conditions of standard lighting, (alternating 12-h light/dark cycle), temperature (22±0.5° C.) and humidity (60±10%) with food and water available at libitum. Animals were used only once in a given experiment. Experiments were conducted between 10:00 and 18:00 h.
(§2) Streptozotocin (Pharmacia & Upjohn Incorporation, Mississauga, ON, Canada) was dissolved in saline at a pH of 4.5 and administered to mice i.p. The BKB1 agonist desArg^9BK and compound c were dissolved in saline and administered to mice i.p.
(§3) Insulin-dependent diabetes mellitus (IDDM) was induced in mice using STZ. Male CD-1 mice were given a single high i.p. dose of STZ (200 mg/kg) (McEvoy et al., 1984, J Clin Invest 74, 715–722). The induction of type 1 diabetes was confirmed by measuring the blood glucose level 96 h after STZ administration (Chakir and Plante, 1996, Prostagl Leukot Essent Fatty Acids 54, 45–51). Blood was withdrawn from the retro-orbital sinus of mice with a 50 μl heparinized capillary tube. Blood glucose levels were determined with an automatic analyzer (Glucometer Elite XL, Bayer Incorporation, Toronto, Ontario, Canada) using glucose oxidase/potassium ferricyanide reagent strips. […] The rate of induction of diabetes was 86%.
The tail-immersion test was performed according to Coderre and Rollman (Coderre and Rollman, 1983, Life Sci 32, 2139–2146). The mouse is gently wrapped in a towel, held at a 45° angle to a thermostatically controlled water bath set at 55±1° C. The latency between submersion of the tail and its removal from the water by the animal was recorded, with a maximum cut-off time of 10 seconds to minimize tail skin tissue damage. Mice with latency value between 2.5–4.0 seconds were selected.
(§4) The effect of the selected drugs on nociception was determined by converting the hot plate, the plantar stimulation, the tail immersion or the tail flick responses from latencies into MPE (Maximum Percent Effect) according to the following equation (Bhargava and Zhao, 1996, Neuropeptides, 30, 219–223): […]
(§5) In all tests, pre-treatment latencies were determined three times with an interval of 24 h starting three days before the injection of STZ or saline and the mean was calculated in order to obtain stable pre-drug response latency. On day seven following the injection of STZ, the selective BKB1 receptor agonist desArg^9BK and/or the specific antagonists of the present invention were given i.p. and the effect of their acute administration on nociception were determined at different time intervals. The mice were divided into the following groups (n=6–10): • i) group control, treated with saline; • ii) group treated with STZ (200 mg/kg, i.p., once); • iii) group treated with STZ+compound c of the present invention as described above (50–600 μg/kg, i.p.); • iv) group treated with STZ+desArg^9BK (400 μg/kg, i.p.); • v) group treated with STZ+desArg^9BK+compound c of the present invention as described above (0.8–1.6 mg/kg, i.p.); • vi) group treated only with compound c of the present invention as described above; and • vii) group treated only with desArg^9BK. In Vivo Assay of Vascular Permeability (Microcirculatory Leakage in Mice)

STZ diabetic mice [3] = assay: Plantar stimulation test, type-1 diabetic hyperalgesia; details: for MPE: 20 min
Method: as §1, §2, §3
In the plantar stimulation test, the method of Hargreaves et al. (Hargreaves et al., 1988, Pain, 32, 77–88) was used to access the hind-paw nociceptive withdrawal thresholds of a free moving mouse to thermal stimuli. Mice are placed individually and trained in a plexiglass enclosures on top of a non-heated glass panel (Model IITC 336 Paw/Tail Stimulator Analgesia Meter, Life Science, Calif., USA) and left to acclimatize for 10 min daily for two days before starting the experiments. Light from a halogen bulb lamp (150 W) was delivered to the plantar surface of one of the mouse hind-paws through the base of the glass panel and was focused using an aluminized parabolic mirror mounted on the light source. The time taken for the mouse to lift or lick its hind paw was noted. The intensity of the radiant heat is selected in order to reach a basal latency of 8–10 seconds, and to reduce the variability. A cut-off time of 30 seconds was used to avoid excessive pain. Each latency value was determined from two applications of the radiant heat stimulus, separated by 1–2 min intervals, and the mean of the two measures is taken.
as §4
as §5, with “In Vivo Assay of Vascular Permeability (Microcirculatory Leakage in Mice)” left out

[4] = test system: OA-sensitized C57B1/6 mice; assay: Allergic asthma, ovalbumin-challenged C57BL/6 mice, BAL cells and eosinophil peroxidase
[5] = test system: OA-sensitized Balb/c mice; assay: Allergic asthma, ovalbumin-challenged Balb/c mice, BAL cell infiltration; details: for airway eosinophils after treatment: OA/saline 3.3±0.3×10^5

## CC[C@H](C)[C@H](NC(=O)[C@@H](Cc1ccc2ccccc2c1)NC(=O)[C@H](CO)NC(=O)[C@](C)(Cc1ccccc1)NC(=O)CNC(=O)[C@@H]1CCCN1C(=O)[C@@H]1C[C@@H]2CCCC[C@@H]2N1C(=O)[C@H](CCCNC(=N)N)NC(=O)[C@H](CCCN)NC(C)=O)C(=O)O [compound c, Ac-Orn[Oic^2,(α-Me)Phe^5,D-βNal^7,Ile^8]desArg^9BK] (Ac-[Orn]R[Oic]PG[αMeF]S[d2Nal]I-OH)
STZ diabetic mice [1]
  reduction of plasma extravasation: 35%
STZ diabetic mice [2]; 50 μg/kg i.p., 20 min
  MPE: −8.41±0.24%
STZ diabetic mice [2]; 100 μg/kg i.p., 20 min
  MPE: −5.65±0.38%
STZ diabetic mice [2]; 200 μg/kg i.p., 20 min
  MPE: −1.49±0.17%
STZ diabetic mice [2]; 400 μg/kg i.p., 20 min
  MPE: −1.27±0.21
STZ diabetic mice [2]; co-administered with desArg^9BK, 0.8 mg/kg
  MPE: −6.33±0.18%
STZ diabetic mice [2]; co-administered with desArg^9BK, 1.2 mg/kg
  MPE: −4.03±0.24%
STZ diabetic mice [2]; co-administered with desArg^9BK, 1.6 mg/kg
  MPE: −1.73±0.09%
STZ diabetic mice [2]; i.p.
  duration of effect: 40 min
  time of maximum effect: 20 min
STZ diabetic mice [3]; STZ diabetic mice, 50 μg/kg i.p.
  MPE: −6.87±0.11%
STZ diabetic mice [3]; STZ diabetic mice, 100 μg/kg i.p.
  MPE: −4.16±0.27%
STZ diabetic mice [3]; STZ diabetic mice, 200 μg/kg i.p.
  MPE: −0.71±0.06%
STZ diabetic mice [3]; STZ diabetic mice, 400 μg/kg i.p.
  MPE: −0.85±0.08%
STZ diabetic mice [3]; STZ diabetic mice, all doses i.p.
  time of maximum effect: 20 min
STZ diabetic mice [3]; STZ diabetic mice, co-administered with desArg^9BK, 0.8 mg/kg i.p.
  MPE: −5.58±0.14%
STZ diabetic mice [3]; STZ diabetic mice, co-administered with desArg^9BK, 1.2 mg/kg i.p.
  MPE: −2.67±0.17%
STZ diabetic mice [3]; STZ diabetic mice, co-administered with desArg^9BK, 1.6 mg/kg i.p.
  MPE: −0.75±0.04%
STZ diabetic mice [3]; STZ diabetic mice, i.p.
  duration of effect: 50 min
STZ diabetic mice [3]; control healthy mice, 50–400 μg/kg i.p.
  effect on plantar stimulation latencies: did not affect
[4]; 100 μg/kg i.p.
  decrease of number of eosinophils in BAL: 79.1%
  decrease of number of neutrophils in BAL: 83.3%
[4]; 100 μg/kg i.p. 30 min before each antigen challenge
  reduction of total number of cells in BAL: 66.5%
[4]; 100 μg/kg i.p., from 2.675×10^5
  number of neutrophils in BAL after treatment: 0.45×10^5 cells
[4]; 100 μg/kg i.p., from 12.911×10^5
  number of eosinophils in BAL after treatment: 2.708×10^5 cells
[4]; 100 μg/kg i.p., from 24.532×10^5
  total number of cells in BAL after treatment: 8.214×10^5 cells
[5]; 1 μg/kg i.v. five min before each OA-nebulization
  decrease of OA-induced airway eosinophilia: 18%
[5]; 1 μg/kg i.v.
  airway eosinophils after treatment: 2.6±0.5×10^5 cells
[5]; 10 μg/kg i.v.
  decrease of OA-induced airway eosinophilia: 54%
  airway eosinophils after treatment: 1.5±0.3×10^5 cells
[5]; 100 μg/kg i.v.
  decrease of OA-induced airway eosinophilia: 64%
  airway eosinophils after treatment: 1.2±0.4×10^5 cells
